The supplement of paper PMC10849652
The list shows a part of the results.

Protein sequences, listed by entry. Tags and fused reporters are not part of them. Lines headed by an entry give the natural chain unless they say otherwise; changes in a name come on top.
UniProt Q9BUK0: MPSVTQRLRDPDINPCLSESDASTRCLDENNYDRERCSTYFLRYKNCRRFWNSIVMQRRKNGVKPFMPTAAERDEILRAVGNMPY
UniProt Q02224: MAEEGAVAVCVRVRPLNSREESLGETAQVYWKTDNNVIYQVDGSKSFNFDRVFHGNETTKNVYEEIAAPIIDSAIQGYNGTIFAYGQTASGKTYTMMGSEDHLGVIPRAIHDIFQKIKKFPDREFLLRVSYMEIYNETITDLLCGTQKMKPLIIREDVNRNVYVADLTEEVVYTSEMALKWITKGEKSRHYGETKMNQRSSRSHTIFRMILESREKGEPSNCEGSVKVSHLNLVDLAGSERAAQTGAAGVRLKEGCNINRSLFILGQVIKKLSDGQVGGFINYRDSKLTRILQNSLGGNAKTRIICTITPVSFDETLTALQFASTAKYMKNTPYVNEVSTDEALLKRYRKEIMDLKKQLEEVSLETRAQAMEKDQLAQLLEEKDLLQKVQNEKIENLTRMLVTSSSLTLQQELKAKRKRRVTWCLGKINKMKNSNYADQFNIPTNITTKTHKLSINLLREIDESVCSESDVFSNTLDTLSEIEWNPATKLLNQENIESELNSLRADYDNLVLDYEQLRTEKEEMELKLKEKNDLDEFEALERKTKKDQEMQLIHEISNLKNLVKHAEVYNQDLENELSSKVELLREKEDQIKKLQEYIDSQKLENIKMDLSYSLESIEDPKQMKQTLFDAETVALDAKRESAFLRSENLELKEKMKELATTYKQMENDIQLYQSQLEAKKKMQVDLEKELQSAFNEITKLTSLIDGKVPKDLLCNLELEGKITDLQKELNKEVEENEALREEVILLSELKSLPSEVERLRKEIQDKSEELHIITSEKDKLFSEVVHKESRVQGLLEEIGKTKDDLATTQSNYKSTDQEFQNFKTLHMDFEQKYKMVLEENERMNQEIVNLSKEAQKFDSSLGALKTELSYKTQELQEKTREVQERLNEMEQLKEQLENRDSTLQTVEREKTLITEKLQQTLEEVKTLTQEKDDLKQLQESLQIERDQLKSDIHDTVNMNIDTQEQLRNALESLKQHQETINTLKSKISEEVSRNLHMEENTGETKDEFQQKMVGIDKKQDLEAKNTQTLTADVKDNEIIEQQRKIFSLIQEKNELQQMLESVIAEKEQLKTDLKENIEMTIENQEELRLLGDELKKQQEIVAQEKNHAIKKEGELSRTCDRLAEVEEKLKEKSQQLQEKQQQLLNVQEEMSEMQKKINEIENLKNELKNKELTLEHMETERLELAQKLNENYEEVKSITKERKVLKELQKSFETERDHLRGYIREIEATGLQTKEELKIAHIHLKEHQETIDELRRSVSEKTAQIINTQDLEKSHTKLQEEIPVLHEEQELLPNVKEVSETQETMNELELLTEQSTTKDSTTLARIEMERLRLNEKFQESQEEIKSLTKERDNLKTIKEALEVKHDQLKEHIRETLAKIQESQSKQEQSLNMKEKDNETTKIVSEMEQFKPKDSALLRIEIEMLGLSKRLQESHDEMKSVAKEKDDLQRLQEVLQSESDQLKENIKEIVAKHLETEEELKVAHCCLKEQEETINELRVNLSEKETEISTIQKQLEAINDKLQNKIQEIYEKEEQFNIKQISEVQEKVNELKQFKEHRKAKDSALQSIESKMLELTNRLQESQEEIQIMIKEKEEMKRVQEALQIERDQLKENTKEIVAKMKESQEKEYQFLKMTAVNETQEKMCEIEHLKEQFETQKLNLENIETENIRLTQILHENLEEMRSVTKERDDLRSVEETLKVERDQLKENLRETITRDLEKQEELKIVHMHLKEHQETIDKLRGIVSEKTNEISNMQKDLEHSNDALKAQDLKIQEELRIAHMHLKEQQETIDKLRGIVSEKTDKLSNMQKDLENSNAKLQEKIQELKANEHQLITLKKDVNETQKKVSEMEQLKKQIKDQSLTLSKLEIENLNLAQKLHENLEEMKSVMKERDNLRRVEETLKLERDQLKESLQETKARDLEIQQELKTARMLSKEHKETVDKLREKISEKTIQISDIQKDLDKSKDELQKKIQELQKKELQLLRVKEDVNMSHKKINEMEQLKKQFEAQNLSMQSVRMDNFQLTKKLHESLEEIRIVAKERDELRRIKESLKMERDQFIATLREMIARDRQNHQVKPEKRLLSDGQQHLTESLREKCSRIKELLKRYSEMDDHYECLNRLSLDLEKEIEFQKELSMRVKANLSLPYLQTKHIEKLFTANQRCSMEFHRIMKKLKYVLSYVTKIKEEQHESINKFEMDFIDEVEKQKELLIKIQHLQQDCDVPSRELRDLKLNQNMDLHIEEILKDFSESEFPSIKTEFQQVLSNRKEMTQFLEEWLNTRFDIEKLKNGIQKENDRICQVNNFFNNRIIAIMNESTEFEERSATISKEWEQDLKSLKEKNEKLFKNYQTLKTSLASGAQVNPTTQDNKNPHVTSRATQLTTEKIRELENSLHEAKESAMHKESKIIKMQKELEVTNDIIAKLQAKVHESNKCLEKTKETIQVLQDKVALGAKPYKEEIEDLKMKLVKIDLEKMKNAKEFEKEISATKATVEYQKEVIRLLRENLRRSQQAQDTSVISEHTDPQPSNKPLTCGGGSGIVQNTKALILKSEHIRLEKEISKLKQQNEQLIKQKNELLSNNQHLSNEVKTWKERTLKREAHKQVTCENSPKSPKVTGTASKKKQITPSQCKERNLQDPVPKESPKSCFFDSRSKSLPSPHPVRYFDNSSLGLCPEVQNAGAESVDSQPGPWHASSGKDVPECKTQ
UniProt O94986: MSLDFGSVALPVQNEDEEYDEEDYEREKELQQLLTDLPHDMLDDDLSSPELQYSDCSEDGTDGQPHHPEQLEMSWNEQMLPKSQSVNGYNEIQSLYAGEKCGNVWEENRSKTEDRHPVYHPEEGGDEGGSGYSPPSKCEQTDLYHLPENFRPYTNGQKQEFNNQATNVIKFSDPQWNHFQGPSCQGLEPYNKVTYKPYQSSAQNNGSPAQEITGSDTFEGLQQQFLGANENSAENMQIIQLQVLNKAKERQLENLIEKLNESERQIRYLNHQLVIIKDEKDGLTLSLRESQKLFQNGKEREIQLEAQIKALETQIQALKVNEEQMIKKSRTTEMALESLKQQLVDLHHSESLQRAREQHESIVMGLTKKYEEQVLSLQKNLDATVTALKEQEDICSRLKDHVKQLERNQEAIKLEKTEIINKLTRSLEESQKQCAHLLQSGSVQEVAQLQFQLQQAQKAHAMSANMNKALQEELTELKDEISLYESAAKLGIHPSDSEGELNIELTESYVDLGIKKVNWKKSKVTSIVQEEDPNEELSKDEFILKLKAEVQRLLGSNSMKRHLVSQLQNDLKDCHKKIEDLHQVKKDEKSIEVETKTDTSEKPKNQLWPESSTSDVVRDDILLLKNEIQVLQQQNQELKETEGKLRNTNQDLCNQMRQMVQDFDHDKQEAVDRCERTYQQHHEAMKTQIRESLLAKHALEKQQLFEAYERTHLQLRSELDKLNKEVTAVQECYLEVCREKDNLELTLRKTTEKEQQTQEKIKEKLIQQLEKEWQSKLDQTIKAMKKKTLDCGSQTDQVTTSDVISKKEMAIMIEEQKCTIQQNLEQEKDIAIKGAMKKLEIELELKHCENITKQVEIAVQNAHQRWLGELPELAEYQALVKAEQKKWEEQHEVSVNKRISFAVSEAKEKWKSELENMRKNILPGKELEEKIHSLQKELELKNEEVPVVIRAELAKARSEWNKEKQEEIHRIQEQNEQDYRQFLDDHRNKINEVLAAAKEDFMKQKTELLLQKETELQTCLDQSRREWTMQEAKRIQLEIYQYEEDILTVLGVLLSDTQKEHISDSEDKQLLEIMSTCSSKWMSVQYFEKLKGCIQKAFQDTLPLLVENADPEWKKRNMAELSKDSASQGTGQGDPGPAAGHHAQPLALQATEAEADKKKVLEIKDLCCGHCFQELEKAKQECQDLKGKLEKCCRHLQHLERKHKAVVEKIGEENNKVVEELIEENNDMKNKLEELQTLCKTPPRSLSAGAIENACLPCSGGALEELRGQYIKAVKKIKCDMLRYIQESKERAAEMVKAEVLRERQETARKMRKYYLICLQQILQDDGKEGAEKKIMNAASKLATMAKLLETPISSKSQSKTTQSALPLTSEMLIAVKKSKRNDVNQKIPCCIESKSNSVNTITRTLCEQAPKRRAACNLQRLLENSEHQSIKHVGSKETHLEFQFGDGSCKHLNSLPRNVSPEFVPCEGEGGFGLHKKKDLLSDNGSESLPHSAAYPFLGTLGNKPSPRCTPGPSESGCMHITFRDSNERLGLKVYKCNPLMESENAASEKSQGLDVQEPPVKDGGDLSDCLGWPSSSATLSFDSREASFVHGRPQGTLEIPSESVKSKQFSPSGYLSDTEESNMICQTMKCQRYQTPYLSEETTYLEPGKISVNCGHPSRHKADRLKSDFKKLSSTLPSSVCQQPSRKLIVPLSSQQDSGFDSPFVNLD
UniProt Q9BSY4: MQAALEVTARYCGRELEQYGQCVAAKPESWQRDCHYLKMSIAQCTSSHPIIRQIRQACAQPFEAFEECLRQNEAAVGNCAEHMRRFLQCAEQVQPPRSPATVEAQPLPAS
UniProt Q9UPN4: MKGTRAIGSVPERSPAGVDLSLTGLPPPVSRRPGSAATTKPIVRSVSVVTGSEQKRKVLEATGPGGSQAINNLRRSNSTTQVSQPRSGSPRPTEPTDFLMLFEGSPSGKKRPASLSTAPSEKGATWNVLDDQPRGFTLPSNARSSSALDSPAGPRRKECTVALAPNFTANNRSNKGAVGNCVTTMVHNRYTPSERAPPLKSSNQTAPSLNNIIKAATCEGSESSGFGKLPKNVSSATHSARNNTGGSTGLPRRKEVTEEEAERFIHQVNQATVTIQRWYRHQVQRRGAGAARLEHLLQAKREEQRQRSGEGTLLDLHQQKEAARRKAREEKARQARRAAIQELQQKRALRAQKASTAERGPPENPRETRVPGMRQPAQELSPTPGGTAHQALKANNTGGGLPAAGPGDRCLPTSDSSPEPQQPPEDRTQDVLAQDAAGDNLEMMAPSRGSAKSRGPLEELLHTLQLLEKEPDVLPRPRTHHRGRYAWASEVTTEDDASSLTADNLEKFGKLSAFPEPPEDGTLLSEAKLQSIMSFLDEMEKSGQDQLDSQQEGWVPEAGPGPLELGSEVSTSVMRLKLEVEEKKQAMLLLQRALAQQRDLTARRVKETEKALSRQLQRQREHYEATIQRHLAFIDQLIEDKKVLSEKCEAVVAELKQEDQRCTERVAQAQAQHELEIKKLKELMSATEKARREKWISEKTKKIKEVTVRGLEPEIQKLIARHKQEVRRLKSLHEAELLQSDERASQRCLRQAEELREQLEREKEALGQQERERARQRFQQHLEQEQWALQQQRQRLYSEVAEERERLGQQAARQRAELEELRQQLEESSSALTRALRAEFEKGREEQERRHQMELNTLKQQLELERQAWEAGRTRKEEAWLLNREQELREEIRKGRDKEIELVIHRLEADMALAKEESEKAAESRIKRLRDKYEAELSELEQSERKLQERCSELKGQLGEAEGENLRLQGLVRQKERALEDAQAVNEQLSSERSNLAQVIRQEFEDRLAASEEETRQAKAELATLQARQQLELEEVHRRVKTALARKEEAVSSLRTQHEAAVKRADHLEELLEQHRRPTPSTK
UniProt Q15517: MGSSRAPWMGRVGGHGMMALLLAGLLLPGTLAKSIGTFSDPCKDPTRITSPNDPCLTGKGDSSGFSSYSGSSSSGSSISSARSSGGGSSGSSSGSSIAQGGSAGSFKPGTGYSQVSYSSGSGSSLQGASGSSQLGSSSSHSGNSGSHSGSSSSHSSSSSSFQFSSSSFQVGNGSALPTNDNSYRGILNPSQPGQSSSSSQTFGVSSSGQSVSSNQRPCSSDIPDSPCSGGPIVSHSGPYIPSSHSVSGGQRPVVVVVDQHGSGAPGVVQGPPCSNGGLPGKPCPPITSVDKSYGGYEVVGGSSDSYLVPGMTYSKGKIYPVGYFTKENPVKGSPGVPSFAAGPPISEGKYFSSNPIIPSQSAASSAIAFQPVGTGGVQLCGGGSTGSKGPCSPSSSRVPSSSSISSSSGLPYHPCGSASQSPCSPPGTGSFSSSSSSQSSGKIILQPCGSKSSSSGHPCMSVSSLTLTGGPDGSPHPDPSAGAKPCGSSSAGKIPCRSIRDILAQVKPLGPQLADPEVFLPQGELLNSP
UniProt Q9UKJ5: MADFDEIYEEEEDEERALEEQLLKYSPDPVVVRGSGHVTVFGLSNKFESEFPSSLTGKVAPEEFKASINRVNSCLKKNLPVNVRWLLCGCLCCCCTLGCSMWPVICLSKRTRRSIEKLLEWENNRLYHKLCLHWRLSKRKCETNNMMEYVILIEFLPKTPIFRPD
UniProt P42773: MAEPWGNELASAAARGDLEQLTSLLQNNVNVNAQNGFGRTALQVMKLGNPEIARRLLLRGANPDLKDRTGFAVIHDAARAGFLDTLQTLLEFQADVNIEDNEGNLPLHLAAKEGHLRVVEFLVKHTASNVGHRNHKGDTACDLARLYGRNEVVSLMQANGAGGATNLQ

Legend:
Assay in all cases: log2 fold change, soluble protein after heating vs DMSO (PISA); higher = thermal stabilisation; K562 cells, 10 uM, 30 min; active = over 0.2 and 3.5 SD of the protein, either way, in both replicates (recomputed)
[1] = compound: CC1=C(C=C(C=C1)NC(=O)C2=CC(=CC=C2)C(C)(C)C#N)NC3=CC4=C(C=C3)N=CN(C4=O)C
In short: (§1)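 Thermal stability values are relative to control samples and come from duplicates. They are expressed as log2 fold changes. For measurement, K562 cells (2×10^6 cells/mL) received 10 μM compound for 30 min, and aliquots were heated for 3 min over 48°C-58°C, pooled, and extracted at 4°C in PBS with 0.5% NP-40. Soluble protein, the supernatant after 21,000xg for 90 min, was quantified by TMTpro 16plex LC-MS/MS with equalised channel sums.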

[2] = compound: CC1=CC=C(C=C1)SC2=C3C=C(SC3=CN=C2)C(=O)N
In short: as §1

[3] = compound: CC1=NC(=CC=C1)C2=C(N=C(N2)C(C)(C)C)C3=CC4=NC=CN=C4C=C3
In short: as §1

[4] = compound: CCCCN(Cc1ccc(C(=O)NO)cc1)C(=O)Nc1ccccc1 [Nexturastat A]
In short: as §1

[5] = compound: CCCS(=O)(=O)Nc1ccc(F)c(C(=O)c2c[nH]c3ncc(-c4ccc(Cl)cc4)cc23)c1F [vemurafenib]
In short: as §1

[6] = compound: CCCS(=O)(=O)Nc1ccc(F)c(C(=O)c2c[nH]c3ncc(Cl)cc23)c1F
In short: as §1

[7] = compound: CCCc1cc(C)[nH]c(=O)c1CNC(=O)c1cc(-c2ccnc(N3CCN(C)CC3)c2)cc2c1cnn2C(C)C
In short: as §1

[8] = compound: CCN(CC)Cc1ccc2cc(COC(=O)Nc3ccc(C(=O)NO)cc3)ccc2c1 [givinostat]
In short: as §1

[9] = compound: CCN(CCCOc1ccc2c(Nc3cc(CC(=O)Nc4cccc(F)c4)[nH]n3)ncnc2c1)CCOP(=O)(O)O [barasertib]
In short: as §1

[10] = compound: CC[C@@H]1C(=O)N(C)c2cnc(Nc3ccc(C(=O)NC4CCN(C)CC4)cc3OC)nc2N1C1CCCC1
In short: as §1

[11] = compound: CC[C@@H]1C(=O)N(C)c2cnc(Nc3ccc(C(=O)N[C@H]4CC[C@H](N5CCN(CC6CC6)CC5)CC4)cc3OC)nc2N1C(C)C [volasertib]
In short: as §1

[12] = compound: CC[C@H](C)N1C=C(C2=C(C=C(C=C21)C3=CN=C(C=C3)N4CCNCC4)C(=O)NCC5=C(C=C(NC5=O)C)C)C
In short: as §1

[13] = compound: CC[C@H](C)[C@@H](C(=O)N[C@@H]([C@@H](C)O)C(=O)N[C@@H](CC(C)C)C(=O)[C@]1(CO1)C)NC(=O)[C@H]([C@@H](C)CC)N(C)C(=O)C [epoxomicin]
In short: as §1

[14] = compound: CCn1c(C(=O)N(C2CC2)C2CC2)cc2c3c(ncn3C)c(Nc3cc(C)n(C)n3)nc21
In short: as §1

[15] = compound: CCn1cc(-c2ccnc3[nH]c(-c4cccc(CN(C)C)c4)cc23)c(-c2ccc(NC(=O)N(C)C)cc2)n1
In short: as §1

[16] = compound: CN(C)CC(=O)Nc1ccc2[nH]c(=O)c3ccccc3c2c1
In short: as §1

[17] = compound: CN(CCOC1=CC=C(C=C1)C[C@H]2C(=O)NC(=O)S2)C3=CC=CC=N3 (racemic) [rosiglitazone]
In short: as §1

[18] = compound: CN1C2=C(C3=C1C(=O)N(N=C3)CC4=CC(=CC=C4)N)SC(=C2)S(=O)C
In short: as §1

[19] = compound: CN1CCC(CNc2ccc3ncc(-c4cccc(OC(F)(F)F)c4)n3n2)CC1
In short: as §1

[20] = compound: CC1=C(C=C(C=C1)NC(=O)C2=CC(=CC=C2)N(C)C)NC(=O)C3=CC=C(C=C3)O
In short: as §1

Measured: log2 fold change

CEP192 (UniProt Q8TEP8)
inactive: [1] -0.14 | [2] 0.231 | [3] -0.188 | [4] -0.061 | [5] -0.054 | [6] 0.088 | [7] -0.14 | [8] 0.028 | [9] 0.028 | [10] -0.009 | [11] -0.091 | [12] -0.12 | [13] -0.059 | [14] -0.002 | [15] -0.096 | [16] -0.122 | [17] -0.002 | [18] -0.067 | [19] -0.106

CDC5L (UniProt Q99459)
inactive: [1] -0.115 | [20] -0.008 | [3] -0.125 | [5] -0.074 | [7] 0.063 | [8] 0.247 | [10] -0.063 | [14] -0.355 | [15] 0.143 | [16] -0.03 | [18] 0.085 | [19] -0.17

CFAP97 (UniProt Q9P2B7)
inactive: [1] -0.085 | [20] -0.027 | [2] 0.108 | [3] -0.041 | [4] 0.276 | [5] -0.149 | [6] -0.031 | [8] 0.1 | [9] -0.088 | [11] 0.114 | [13] 0.006 | [14] -0.062 | [15] 0.027 | [16] -0.082 | [17] -0.049 | [18] -0.021 | [19] -0.131

CHCHD7 isoform 4 (UniProt Q9BUK0)
inactive: [1] -0.034 | [20] -0.051 | [2] 0.051 | [3] 0.011 | [5] -0.17 | [6] 0.109 | [7] -0.133 | [8] -0.062 | [9] -0.138 | [10] -0.056 | [11] -0.072 | [12] -0.126 | [14] -0.03 | [15] 0.104 | [16] 0.026 | [17] 0.103 | [18] -0.123 | [19] -0.013

CDC45 isoform 3 (UniProt O75419)
inactive: [1] -0.207 | [20] 0 | [2] 0.08 | [3] 0.019 | [4] 0.078 | [6] 0.032 | [10] -0.254 | [11] -0.329 | [12] 0.264 | [13] -0.105 | [15] 0.031 | [18] 0.137 | [19] -0.116

CENPE (UniProt Q02224)
inactive: [1] -0.018 | [20] 0.063 | [2] 0.022 | [3] -0.096 | [5] 0.047 | [6] -0.108 | [8] 0.285 | [9] -0.1 | [11] 0.137 | [15] -0.039 | [16] -0.061 | [18] -0.255 | [19] 0.192

CENPJ (UniProt Q9HC77)
inactive: [1] -0.108 | [20] 0.024 | [2] -0.03 | [3] 0.196 | [4] 0.006 | [6] -0.063 | [8] 0.158 | [11] -0.105 | [13] -0.013 | [14] 0.021

CHD5 (UniProt Q8TDI0)
inactive: [1] -0.029 | [20] -0.001 | [2] -0.046 | [4] 0.261 | [5] 0.055 | [6] 0.096 | [7] -0.004 | [8] 0.297 | [9] 0.053 | [10] -0.128 | [11] -0.158 | [12] 0.261 | [13] 0.18 | [14] -0.055 | [15] -0.025 | [16] 0.075 | [17] 0.01 | [18] 0.107 | [19] -0.201

CDC42SE2 (UniProt Q9NRR3)
inactive: [1] 0.035 | [2] 0.057 | [4] 0.037 | [5] 0.161 | [6] 0 | [7] 0.143 | [8] 0.231 | [9] 0.06 | [10] 0.174 | [11] 0.348 | [12] -0.025 | [13] 0.122 | [14] 0.042 | [16] 0.161 | [17] -0.042

CEP152 (UniProt O94986)
inactive: [1] -0.135 | [20] 0.085 | [2] -0.029 | [3] -0.097 | [5] -0.156 | [6] -0.011 | [7] 0.105 | [8] 0.313 | [9] 0 | [10] -0.17 | [11] -0.107 | [12] -0.296 | [14] -0.078 | [15] -0.026 | [16] -0.094 | [17] 0.157 | [19] -0.407

CHCHD5 (UniProt Q9BSY4)
inactive: [1] 0 | [20] -0.039 | [2] 0.013 | [3] 0.083 | [6] 0.032 | [7] 0.014 | [8] -0.081 | [9] 0.092 | [11] -0.059 | [12] 0.054 | [14] -0.003 | [17] -0.069

CEP131 (UniProt Q9UPN4)
inactive: [1] -0.2 | [2] 0.11 | [3] 0.006 | [4] 0.191 | [6] 0.037 | [7] 0.241 | [8] -0.002 | [11] 0.063 | [13] -0.135 | [14] -0.043 | [15] -0.067 | [18] 0.086 | [19] 0.085

CDSN (UniProt Q15517)
inactive: [1] -0.15 | [2] 0.061 | [3] -0.172 | [4] 0.272 | [5] 0.503 | [6] -0.145 | [7] -0.016 | [9] 0.292 | [10] 0.524 | [11] 0.281 | [12] -0.069 | [13] 0.796 | [15] 0.036 | [16] 1.04 | [17] -0.027 | [18] 0.259 | [19] -0.348

CDH5 (UniProt P33151)
inactive: [1] -0.104 | [4] 0.001 | [7] 0.031 | [8] -0.124 | [10] 0.175 | [13] -0.184 | [14] 0.225

CEP41 (UniProt Q9BYV8)
inactive: [1] -0.381 | [3] 0.166 | [8] 0.191 | [10] -0.073 | [14] 0.14

CHIC2 (UniProt Q9UKJ5)
inactive: [1] 0.009 | [20] 0.074 | [2] -0.002 | [4] 0.043 | [5] 0.006 | [6] 0.094 | [7] -0.027 | [8] -0.043 | [9] -0.227 | [10] 0.011 | [11] 0.006 | [12] 0.158 | [13] -0.004 | [14] 0.039 | [15] -0.002 | [16] 0.045 | [17] 0.025 | [18] 0.061 | [19] 0.055

CDK17 isoform 2 (UniProt Q00537)
inactive: [1] 0.105 | [2] 0.061 | [3] -0.051 | [4] 0.172 | [5] -0.098 | [6] -0.085 | [7] 0.042 | [8] 0.003 | [9] 0.055 | [10] -0.153 | [11] -0.079 | [13] 0.07 | [15] -0.012 | [16] 0.046 | [18] 0.022 | [19] 0.051

CDKN1B (UniProt P46527)
inactive: [1] -0.016 | [20] -0.009 | [2] -0.026 | [3] 0 | [4] 0.148 | [5] -0.176 | [6] -0.048 | [7] 0.057 | [8] 0.051 | [9] -0.063 | [11] 0.028 | [12] -0.083 | [13] 0.393 | [15] 0.036 | [16] 0.025 | [18] 0.06 | [19] 0.073

CEP128 (UniProt Q6ZU80)
inactive: [1] -0.043 | [2] 0.006 | [3] -0.188 | [5] -0.1 | [6] -0.118 | [7] -0.422 | [9] 0.098 | [10] -0.009 | [11] -0.09 | [16] -0.11 | [18] 0.039

CDKN2C (UniProt P42773)
inactive: [1] -0.021 | [20] -0.097 | [2] 0.029 | [3] -0.034 | [5] 0.085 | [6] -0.057 | [7] -0.057 | [8] -0.092 | [9] 0.11 | [10] 0.057 | [11] -0.085 | [12] -0.071 | [14] -0.01 | [15] -0.001 | [16] -0.008 | [17] 0.029 | [18] -0.018 | [19] 0.054

CHAF1A (UniProt Q13111)
inactive: [1] 0.035 | [20] -0.054 | [2] 0.087 | [3] -0.116 | [4] 0.088 | [6] 0.026 | [7] -0.097 | [8] 0.149 | [9] 0.107 | [10] 0.025 | [11] -0.021 | [12] 0.036 | [13] -0.039 | [15] 0.064 | [18] 0.158 | [19] 0.051

Reprinted at random: two entries already listed, in no set order.
CDH5 (UniProt P33151)
inactive: [1] -0.104 | [4] 0.001 | [7] 0.031 | [8] -0.124 | [10] 0.175 | [13] -0.184 | [14] 0.225

CEP128 (UniProt Q6ZU80)
inactive: [1] -0.043 | [2] 0.006 | [3] -0.188 | [5] -0.1 | [6] -0.118 | [7] -0.422 | [9] 0.098 | [10] -0.009 | [11] -0.09 | [16] -0.11 | [18] 0.039

Continuation:

CDK19 (UniProt Q9BWU1)
inactive: [1] -0.032 | [20] 0.212 | [2] 0.246 | [4] -0.039 | [5] 0.057 | [6] -0.026 | [7] -0.109 | [8] -0.133 | [10] 0.016 | [11] -0.064 | [12] 0.069 | [13] -0.114 | [15] -0.1 | [16] -0.068 | [18] 0.003 | [19] 0.456
